According to patent US20080057136A1, “Disinfecting Composition and Methods of Making and Using Same” (priority 2003, published 2008):
For some assays here: At least one structure is not confirmed: it was looked up by name or label, or the drawing left a doubt. Some of these results come from one statement about several compounds together.

What was measured:
bacterial population = conditions: 0.1% solution applied to human skin; cited from earlier work
[1] = system: Bacillus subtilis (ATCC 19659); experiment: Time-Kill test (Example 9); assay type: cell-based; conditions: Study 509-101

Structure (SMILES): CCCCCCCCCCCCCCCC[n+]1ccccc1 [CPC, Cetyl Pyridinium Chloride]
- time to decrease the bacterial population by 50% (bacterial population): about 7 min
- reduction of B. subtilis count [1]: < 6 log10
